Experimental data as given in article doi:10.1101/266833.
Read-outs that look alike come from different tables or passages of the source. These are yes or no findings as the source states them, for the method shown. Binding seen in cells or lysates may run through a third protein. Here binding means that the protein was enriched with, or labelled near, the bait; the list need not be complete.

Assays:
Experiment in all cases: affinity purification with mass spectrometry
[1] = target: T1, Upf1-TAP (S. cerevisiae) (UniProt P30771)
T1 sequence: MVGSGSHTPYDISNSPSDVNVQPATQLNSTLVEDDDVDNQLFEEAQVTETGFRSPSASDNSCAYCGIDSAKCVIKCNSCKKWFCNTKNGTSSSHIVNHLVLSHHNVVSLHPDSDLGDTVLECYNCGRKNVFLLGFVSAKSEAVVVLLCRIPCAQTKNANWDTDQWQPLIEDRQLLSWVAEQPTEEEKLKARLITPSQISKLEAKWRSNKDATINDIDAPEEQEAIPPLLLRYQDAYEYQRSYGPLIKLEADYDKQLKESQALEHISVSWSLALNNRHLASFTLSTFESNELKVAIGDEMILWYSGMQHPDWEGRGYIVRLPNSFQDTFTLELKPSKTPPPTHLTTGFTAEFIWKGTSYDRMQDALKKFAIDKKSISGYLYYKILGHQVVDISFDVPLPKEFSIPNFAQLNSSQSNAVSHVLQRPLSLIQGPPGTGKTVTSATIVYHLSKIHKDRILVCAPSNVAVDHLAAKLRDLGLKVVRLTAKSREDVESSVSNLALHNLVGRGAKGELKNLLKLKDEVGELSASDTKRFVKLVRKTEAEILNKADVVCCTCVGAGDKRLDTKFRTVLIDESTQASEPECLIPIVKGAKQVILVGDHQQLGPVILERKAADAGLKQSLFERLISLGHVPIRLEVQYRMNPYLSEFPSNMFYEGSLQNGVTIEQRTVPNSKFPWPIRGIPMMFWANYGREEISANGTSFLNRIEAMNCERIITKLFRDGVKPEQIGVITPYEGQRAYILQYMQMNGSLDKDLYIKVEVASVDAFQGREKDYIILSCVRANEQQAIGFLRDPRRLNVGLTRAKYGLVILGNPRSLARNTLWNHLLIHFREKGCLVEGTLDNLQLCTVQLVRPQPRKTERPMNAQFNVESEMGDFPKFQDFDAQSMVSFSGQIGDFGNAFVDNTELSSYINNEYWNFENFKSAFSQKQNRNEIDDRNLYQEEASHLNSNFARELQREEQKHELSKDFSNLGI

[2] = target: T2, TAP-Upf1-HD-Cter (208-971) (S. cerevisiae) (UniProt P30771)
T2 sequence: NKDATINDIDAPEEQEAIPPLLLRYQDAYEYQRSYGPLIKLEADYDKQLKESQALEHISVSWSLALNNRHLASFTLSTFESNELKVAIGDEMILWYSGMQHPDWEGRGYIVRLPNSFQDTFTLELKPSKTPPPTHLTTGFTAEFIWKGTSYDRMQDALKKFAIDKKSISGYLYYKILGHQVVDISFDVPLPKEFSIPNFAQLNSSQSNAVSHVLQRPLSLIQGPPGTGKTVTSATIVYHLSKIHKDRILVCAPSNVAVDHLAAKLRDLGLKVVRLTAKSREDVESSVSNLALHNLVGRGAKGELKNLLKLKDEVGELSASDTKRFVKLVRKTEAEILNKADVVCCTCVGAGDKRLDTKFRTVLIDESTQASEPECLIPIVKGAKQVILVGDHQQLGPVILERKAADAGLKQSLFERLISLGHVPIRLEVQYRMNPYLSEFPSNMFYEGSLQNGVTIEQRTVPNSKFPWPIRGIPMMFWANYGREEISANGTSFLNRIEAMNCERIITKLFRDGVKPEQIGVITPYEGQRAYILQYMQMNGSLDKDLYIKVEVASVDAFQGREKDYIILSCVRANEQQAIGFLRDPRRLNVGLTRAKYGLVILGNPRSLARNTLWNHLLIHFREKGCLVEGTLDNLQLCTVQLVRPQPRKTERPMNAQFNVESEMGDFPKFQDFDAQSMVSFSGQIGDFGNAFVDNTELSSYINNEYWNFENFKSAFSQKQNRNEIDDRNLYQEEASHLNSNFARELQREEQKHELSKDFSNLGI

[3] = target: T3, TAP-Upf1-FL (S. cerevisiae) (UniProt P30771)
T3 sequence: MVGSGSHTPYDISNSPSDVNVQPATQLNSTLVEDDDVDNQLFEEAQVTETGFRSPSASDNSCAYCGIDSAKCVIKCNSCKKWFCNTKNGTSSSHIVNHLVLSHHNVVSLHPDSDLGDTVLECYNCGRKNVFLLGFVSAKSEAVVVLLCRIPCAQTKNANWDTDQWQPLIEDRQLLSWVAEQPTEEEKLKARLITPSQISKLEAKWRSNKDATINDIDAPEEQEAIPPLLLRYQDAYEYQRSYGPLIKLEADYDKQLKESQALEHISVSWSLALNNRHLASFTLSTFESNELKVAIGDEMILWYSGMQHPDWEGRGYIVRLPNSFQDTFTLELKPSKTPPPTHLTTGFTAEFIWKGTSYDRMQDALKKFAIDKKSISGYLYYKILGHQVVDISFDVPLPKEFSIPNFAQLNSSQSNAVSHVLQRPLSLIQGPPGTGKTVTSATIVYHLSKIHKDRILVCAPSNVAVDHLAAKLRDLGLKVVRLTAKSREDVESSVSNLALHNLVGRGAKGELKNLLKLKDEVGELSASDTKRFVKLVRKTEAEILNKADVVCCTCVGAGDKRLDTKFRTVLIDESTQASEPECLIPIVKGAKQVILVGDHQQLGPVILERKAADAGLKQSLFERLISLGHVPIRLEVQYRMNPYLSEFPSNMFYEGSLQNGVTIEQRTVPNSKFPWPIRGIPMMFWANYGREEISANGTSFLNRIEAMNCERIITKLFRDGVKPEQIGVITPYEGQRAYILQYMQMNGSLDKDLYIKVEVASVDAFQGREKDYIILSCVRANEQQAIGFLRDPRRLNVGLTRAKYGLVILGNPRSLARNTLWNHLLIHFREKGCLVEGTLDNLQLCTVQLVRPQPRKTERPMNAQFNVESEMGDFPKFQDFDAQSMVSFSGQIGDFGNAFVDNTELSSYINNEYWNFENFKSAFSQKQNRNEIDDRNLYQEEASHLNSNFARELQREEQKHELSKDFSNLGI

[4] = target: T2, TAP-Upf1-HD-Cter (208-971) (S. cerevisiae); remark: listed apart in the source

Measured: binding

B1: Nmd4 (protein, UniProt Q12129 1-218)
chain: MTQYNFIIDASAFEKGLGNIKRWCSDCTEAVTLNFYIPTFTLNELDFLQQRRKSFAARESLKFIDRLDDSKFANLKVFIEFPEVLDIILWSDVMEHNDSSGKINIAKLPKRLKNLLKSCIYKCYLEGNEGLHWFLISEDPQIREMAMQCNIPSCSIVDVDSILSKDMNDKSFRESEKFNNMMLKNGTKEESENGREIIRTNFNKTVYASRGTGELWSP
binds: all assays above

B2: Ebs1 (protein, UniProt Q03466 1-884)
chain: MEPSNTQKEDLPTAFNGIKSQLNSILKSNQLFQDYALLNGFLAFVHSKLNAAILTSIESQCGKSFAADLDSFDQSSISSILDFSWESVHYPIFKWFQMWRNYILFEKENKKQQTKFIDFRKMNSKMLKFFKTVQNFYVNVINTVYKKYDISVLLPKRIIQDLKLSDIENTTNVGDILAVKTFNSSSPLAHLIPTLFHRCLLFLGTAYRYKTLLEEISNKYSISNFKKSLDFFRLASLVLPSAGETYSQAGAIFLQTGNLGIAVFNFVKGMMTKMPSPVSIKNFGALMVDNKSSLNRSLHTTIMNTYLQESKGPRTPAKEILEFYFLGLFGSVWSPTSWRDDTKPNQLNNGIKLRHLENALYETMSARYLNNIKTIFHNLIITIGGFHLLLKRRSDVSAKTLKDLRSNELDYLNFAFKYIAHILNDIVKESWSENPEVSEILGMVRIINCWIKANPMVLQYSQSNLEFVNALAYLINDIVKKKPSPSFSITEHIPKRTYWFEEDLMVKGLSFVNFQLSDFDDYEKILEMDHSLDRLIGNPPLCDKLSASSEMLLRLQAVVNISSQLLQNNNCGVEWSDNKSRYIFNKKIGFKETVKNSMKTSKQSNEKAKLQRKNKPSTTNGSISMADLERQMRSSSLDSFSPTMGYSGSSVPMAPDTFNVKPSGTITGNKVNVELLKIELSGQNADGAITNISPGYSNAAISSSNSTDESSFDLNNILSSMQQKHAEKSFAKSMQGVNEQIPANDVCHQAQRPMQGGLYSSQQPSSMSSLNSAYQNASMPPSASMVSYPYPFLNQQGQGVFPPYNAQNLQWQSEAYSLKSMNFANPTWLGDQYQTSAPSSAYAQAQRQMFQQPMQQDVGKYMQFPFDAQSNTDSMRGNSRNNMF
binds: all assays above
